Laboratory results from patent publication US20190000969A1.
Residue numbers refer to the chain shown, from its start. These are yes or no findings as the source states them, for the method shown. Some entries that bind do so weakly or less than the wild type. Where a sequence is shown, tags or fusion partners need not be part of it. Blank lines part the entries; values can stand above or below the binder they belong to.

Tests used:
[1] = target: T1, hUPK1B(108-229)-Fc, second extracellular domain of human UPK1B fused to human IgG2 Fc (human) (UniProt O75841); experiment: IHC competition: antibody premixed with 5x molar excess of hUPK1B-Fc, then applied to FFPE sections of UPK1B-expressing HEK293T cells
T1 sequence: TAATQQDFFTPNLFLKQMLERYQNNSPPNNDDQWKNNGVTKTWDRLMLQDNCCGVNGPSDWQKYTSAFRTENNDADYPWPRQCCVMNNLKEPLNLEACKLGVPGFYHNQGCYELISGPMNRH

[2] = target: T1, hUPK1B(108-229)-Fc, second extracellular domain of human UPK1B fused to human IgG2 Fc (human); experiment: IHC competition: SC115.7 mixed with 5x molar excess of hUPK1B-Fc before staining of FFPE sections
[3] = target: T1, hUPK1B(108-229)-Fc, second extracellular domain of human UPK1B fused to human IgG2 Fc (human); experiment: MSD electrochemiluminescence sandwich ELISA; standard curve with purified recombinant hUPK1B-Fc

- binding [1]: binds
- binding [2]: binds
B1: SC115.7 (antibody, V domains shown)
VH: EVQLQQSGAELVRPGASVKLSCTASGFNIKDSFIHWVKKRPEEGLEWIGWIDPEDGETKYAPKFQDKATITADTSSNTAYLQLSSLTSEDTAIYYCARRERFYGIYYALDYWGQGTSVTVSS
VL: DIVMTQSPSSLTVTAGEKVTMSCKSSQSLLNSGNQKNYLTWYQQKLGQPPKLLIYWASTRESGVPDRFTGSGSGTDFTLTISSVQAEDLAVYYCQNDYSNPFTFGSGTKLEIK

- binding [3]: binds
B2: SC115.18 (antibody, V domains shown)
VH: QVQLQQPGAELVRPGSSVKLSCKASGYTFTSYWMHWVKQRPMQGLEWIGNIDPSDSEIYYNQKFKDKATLTVDKSSGTAYMQLSSLTSEDSAVYYCARRSGSRDYYGMDDWGQGTSVTVSS
VL: B1 VL with S22R, L46P, Y55S, E61D, G74R, T78I, N100Y, F102L, S106A, I112L
